Results: PubChem BioAssay AID485298 (National Center for Advancing Translational Sciences (NCATS), 2010)
The whole screen tested about 320,000 compounds, of which about 740 (0.23%) were called active. This list was built around the results that the source calls inconclusive (neither active nor inactive); the mix of calls is not that of the screen. The call rests on the fitted dose curve; in most records, active means well fitted activation curve with a large enough effect; inconclusive means small, poorly fitted or top-dose-only effect; inactive means no such curve, though single readings can be large or run the other way. A potency beside an inconclusive call is a rough fit, not a confirmed value.
Potency means the concentration at half of the fitted maximal effect.

Experiment: qHTS Assay for Small Molecule Inhibitors of Mitochondrial Division or Activators of Mitochondrial Fusion; further: nearly all actives have a fitted effect of over 45% in size
Settings: S. cerevisiae fusion-defective mutant growth rescue, CellTiterGlo 48 h; series mostly up to 46.1 µM
Method in brief: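 Yeast fusion mutant, YPEG (non-fermentable carbon), compound, 48 h at 37C non-permissive; CellTiterGlo added, 10 min RT, luminescence read. Rescued growth = division inhibition.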
With `Cc1ccc(S(=O)(=O)Nc2cccnc2Oc2ccc(Cl)cc2)cc1` the Potency was inconclusive: 12.6 µM [activator, partial curve]. For `C=C(C(=O)c1ccccc1)C(c1ccccc1)C(C)C(=O)c1ccccc1` (centres undefined), the Potency was “inactive”. For `Cc1cc(NC(=O)CSc2nc(-c3ccco3)cc(C(F)(F)F)n2)n(-c2ccccc2)n1`, the Potency was “inactive”. In the case of `COc1ccc(CCc2nc(-c3ccc(-n4cccc4)cc3)no2)cc1`, the Potency is reported as “inactive”. In the case of `COc1ccc(O)c(C(=O)CC(=O)c2ccccc2C)c1`, the Potency is reported as inconclusive: 8.91 µM [activator, partial curve]. In the case of `CCC1=C(OC(=O)N(CC)CC)N2C(=O)OC(=NCCOC)[C@]2(Cc2ccccc2)[C@H]2C1=CC[C@H]1C(=O)N(CC(=O)OC)C(=O)[C@H]12`, the Potency is reported as inconclusive: 11.2 µM [activator, partial curve]. With `Cc1ccc(NC(=S)c2ccncc2)c(C)c1` the Potency was “inactive”. For `CCOC(=O)[C@H]1[C@H]2COc3ccccc3[C@@H]2N2C(=O)c3cc(Cl)ccc3NC(=O)[C@@]12C`, the Potency was inconclusive: 31.6 µM [activator, single point]. With `NC(=O)c1sc2nc(N3CCCCC3)c3c(c2c1N)CCCC3` the Potency was inconclusive: 20 µM [activator, single point]. For `COc1cc2c(cc1OC)C(c1cccs1)N(C(=O)c1ccncc1)CC2` (centres undefined), the Potency was inconclusive: 6.31 µM [activator, single point]. With `O=C(c1cccs1)N(C(=O)c1cccs1)c1ccc(Br)cn1` the Potency was “inactive”. For `CCCc1cc(-c2n[nH]c(=S)n2C(C)c2ccccc2)cs1` (centres undefined), the Potency was inconclusive: 14.1 µM [activator, partial curve]. In the case of `CCOC(=O)C(CC(=O)Nc1nc(C(C)=O)c(C)s1)C(C)c1ccccc1` (centres undefined), the Potency is reported as inconclusive: 35.5 µM [activator, single point]. For `CC(/C=N/n1c(-c2ccco2)n[nH]c1=S)=C\c1ccccc1`, the Potency was inconclusive: 25.1 µM [activator, single point]. For `Cc1ccc(NC(=O)Nn2cnnc2)cc1Cl`, the Potency was “inactive”. With `COc1ccccc1OCC(=O)Nc1sc2c(c1C(=O)NCC1CCCO1)CCC2` (centres undefined) the Potency was inconclusive: 20 µM [activator, single point]. With `CC1=Nc2ccccc2/C1=C/c1sc(=S)n(-c2cccc(C(=O)O)c2)c1O` the Potency was “inactive”. For `N#C/C(=C(/O)c1ccco1)c1nc2ccccc2[nH]1`, the Potency was “inactive”. In the case of `Cc1ccc(CN(CC(O)COc2cccc3[nH]cc(C)c23)C(C)(C)C)cc1` (centres undefined), the Potency is reported as active: 5.62 µM. With `O=C(O)/C=C/c1cnc[nH]1` the Potency was inconclusive: 20 µM [activator, partial curve, poor fit]. For `COc1cc2c(cc1NC(=O)CSc1nc3ccccc3[nH]1)oc1ccccc12`, the Potency was inconclusive: 11.2 µM [activator, partial curve]. With `CCN1c2ccccc2-c2nc3ccccc3n2C1c1cccs1` (centres undefined) the Potency was inconclusive: 22.4 µM [activator, single point]. In the case of `COc1cc2ccccc2cc1C(=O)Nc1ccc(Cc2ccncc2)cc1`, the Potency is reported as inconclusive: 20 µM [activator, single point]. In the case of `CCN(CC)C(=O)c1sc(NC(=O)c2c(OC)cccc2OC)c(C#N)c1C`, the Potency is reported as inconclusive: 20 µM [activator, single point]. With `CCn1cc([N+](=O)[O-])c(C(=O)Nc2ccc3c(c2)OCCO3)n1` the Potency was “inactive”. With `COCCn1c(-c2cccs2)nc2nc3ccccc3nc21` the Potency was “inactive”. With `CC1CC(C)CN(C(=O)CNC(=O)Cn2ccc3ccccc3c2=O)C1` (centres undefined) the Potency was inconclusive: 2.82 µM [activator, partial curve]. For `C=CCn1c(CNC(=O)c2cccs2)nnc1SCc1ccc(Cl)cc1Cl`, the Potency was inconclusive: 35.5 µM [activator, single point]. With `O=C(CN1C(=O)/C(=C\c2ccccc2F)SC1=S)Nc1nc2ccccc2s1` the Potency was active: 12.6 µM. For `CN1CCN(C(=S)c2ccc(-c3cccc(Cl)c3Cl)o2)CC1`, the Potency was inconclusive: 35.5 µM [activator, single point]. With `CCc1cc2c(SCC(=O)c3ccc(C)cc3)ncnc2s1` the Potency was “inactive”. With `Cc1ccc(CSc2nnc(-c3ccc(NS(=O)(=O)c4ccccc4)cc3)o2)cc1` the Potency was inconclusive: 12.6 µM [activator, partial curve]. With `CC(C)C(=O)Nc1cc(S(=O)(=O)Nc2ccc(Cl)cc2)ccc1Cl` the Potency was inconclusive: 12.6 µM [activator, partial curve]. With `Cn1c(=O)[nH]c(=O)c2c1nc([N+](=O)[O-])n2Cc1ccccc1` the Potency was “inactive”. In the case of `CCCn1c(/C=N/Nc2nc3ccccc3[nH]2)nc2ccccc21`, the Potency is reported as inconclusive: 22.4 µM [activator, partial curve]. With `CCOC(=O)C1=C(C)NC2=C(C(=O)c3ccccc32)C1c1cccc2ccccc12` (centres undefined) the Potency was inconclusive: 12.6 µM [activator, partial curve]. For `O=C(N[C@H]1CCC(=O)N(CCSc2ccc(Br)cc2)CC1)OCc1ccccc1`, the Potency was inconclusive: 31.6 µM [activator, single point]. For `O=c1cc(-c2ccccc2Cl)oc2c([N+](=O)[O-])c(O)cc(O)c12`, the Potency was inconclusive: 17.8 µM [activator, partial curve]. In the case of `Cc1cc(CNC(=O)COc2cc(F)ccc2[N+](=O)[O-])c2ccccc2n1`, the Potency is reported as inconclusive: 11.2 µM [activator, partial curve]. With `Cc1ccc(S(=O)(=O)Nc2ccc(Cl)cc2C(=O)c2ccc(F)cc2)cc1` the Potency was inconclusive: 12.6 µM [activator, partial curve]. For `Cc1sc2nc(C3CC3)nc(SCC(=O)N3CCCc4ccccc43)c2c1C`, the Potency was inconclusive: 17.8 µM [activator, single point]. With `CCCCc1nc(N2CCOCC2)c(C#N)c2c1CCCC2` the Potency was “inactive”. For `Cc1cc(Cl)ccc1OCc1n[nH]c(=S)n1C1CCCCC1`, the Potency was inconclusive: 31.6 µM [activator, single point]. In the case of `Cc1ccc(OCC(=O)N(Cc2cccc(Cl)c2)C2CCS(=O)(=O)C2)cc1C` (centres undefined), the Potency is reported as inconclusive: 10 µM [activator, partial curve, poor fit].
